This is an account of results in patent publication US20200354462A1.

No constants are given. Whether binding was seen depends on the method and setting. Some entries that bind do so weakly or less than the wild type.

For assay [1], the target named is T1, human GnRH receptor expressed on the surface of OC-3-VGH cancer cells (human) (UniProt P30968).
T1 sequence (looked up): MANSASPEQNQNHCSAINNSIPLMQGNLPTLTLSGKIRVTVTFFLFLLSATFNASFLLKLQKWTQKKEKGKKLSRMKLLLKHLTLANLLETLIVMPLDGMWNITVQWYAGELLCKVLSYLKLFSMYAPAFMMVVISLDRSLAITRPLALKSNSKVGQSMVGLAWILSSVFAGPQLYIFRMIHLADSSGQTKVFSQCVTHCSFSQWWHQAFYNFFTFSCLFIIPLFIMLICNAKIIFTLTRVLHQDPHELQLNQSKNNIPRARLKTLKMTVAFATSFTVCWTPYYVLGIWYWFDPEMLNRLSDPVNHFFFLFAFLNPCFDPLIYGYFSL
Kind of assay: competitive cell ELISA on OC-3-VGH cells; competitor mGHR106.

Assay [2] addresses T2, N1-29 synthetic peptide of the N-terminal extracellular domain of the monkey GnRH receptor (monkey).
T2 sequence (peptide): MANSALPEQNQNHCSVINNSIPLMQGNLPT
Put plainly: peptide competition (1 µg/mL peptide) of antibody binding to OC-3-VGH cells (FIG. 1B).

B1: humanized GHR-106 monoclonal antibody (antibody, human IgG4 S228P, kappa, V domains shown)
VH: QVQLQESGPGLVKPSETLSLTCTVSGFSLSRYSVHWIRQPPGKGLEWIGMIWGGGSTDYNPSLKSRVTISKDNSKSQVFLKMSSVTAADTAMYYCARGNDGYYSFAYWGQGTLVTVSS
VL: DIVMTQSPDSLAVSLGERATINCKSSQSLLNSRTRKNYLAWYQQKPGQSPKLLIYWASTRESGVPDRFSGSGSGTDFTLTISSLQAEDVAVYYCKQSYNLYTFGQGTKLEIKR
In the case of B1, the binding entry in assay [1] and in assay [2] was “binds” in each case.
